Laboratory results as given in US20250188095A1, “DISUBSTITUTED OCTAHYDROPYRROLO[3,4-c]PYRROLYL METHYL KETONE DERIVATIVE AND USE THEREOF” (JIANGSU NHWA PHARMACEUTICAL CO., LTD, priority 2022, published 2025).

Experiment: Rat pharmacokinetic parameters in rat plasma
Assay type: in vivo
Conditions: male SD rats
Description: Healthy male SD rats aged 6-9 weeks were selected and randomly divided into two groups, with 3 rats in each group. One group was given 1 mg/kg of the test compound by intravenous injection, and the other group was given 10 mg/kg of the test compound by gavage. Whole blood was collected from the animals in the intravenous group and the gavage group before administration and 0.083, 0.25, 0.5, 1.0, 2.0, 4.0, 7.0, 10.0, and 24.0 h after administration and centrifuged to obtain plasma samples.
All biological samples were quantitatively analyzed using the LC-MS/MS method. Pharmacokinetic parameters were calculated using the non-compartmental model linear-log trapezoidal method using WinNonlinTMVersion7.0 (Pharsight, Mountain View, CA) pharmacokinetic software. AUC0-last represents the area under the plasma concentration-time curve from time point zero to the last detectable concentration time point; PO represents oral administration; iv represents intravenous, Cmax represents the peak concentration, and F % represents oral bioavailability.

AUC(0-t) (PO 10 mg/kg): 701 ng·h/mL
Cmax (PO 10 mg/kg): 943 ng/mL
bioavailability (PO 10 mg/kg vs iv 1 mg/kg, read-out: F (%) oral bioavailability): 15.9%
AUC(0-t) (iv 1 mg/kg): 442 ng·h/mL
Cmax (iv 1 mg/kg): 1100 ng/mL
SMILES: Cc1cc(C)nc(N2CC3CN(C(=O)c4c(F)cccc4-n4nccn4)CC3C2)n1 (centres unmarked) [Seltorexant, reference compound]
